Reference: paper doi:10.1101/2024.02.02.578563

Sequences of proteins named here, by UniProt entry; tags and fusion partners are left off. A change or cut given only in a name is not applied to a line headed by its entry.
UniProt P27695: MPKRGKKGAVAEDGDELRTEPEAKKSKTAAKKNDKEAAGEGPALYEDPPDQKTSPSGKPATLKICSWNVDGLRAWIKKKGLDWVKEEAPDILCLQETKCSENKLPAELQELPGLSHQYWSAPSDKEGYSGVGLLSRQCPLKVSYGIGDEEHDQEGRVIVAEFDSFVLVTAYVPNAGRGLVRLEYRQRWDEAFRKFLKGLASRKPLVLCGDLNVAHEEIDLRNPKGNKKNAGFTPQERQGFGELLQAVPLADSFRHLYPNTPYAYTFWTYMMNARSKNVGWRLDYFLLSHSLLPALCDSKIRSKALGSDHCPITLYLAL
UniProt P22626: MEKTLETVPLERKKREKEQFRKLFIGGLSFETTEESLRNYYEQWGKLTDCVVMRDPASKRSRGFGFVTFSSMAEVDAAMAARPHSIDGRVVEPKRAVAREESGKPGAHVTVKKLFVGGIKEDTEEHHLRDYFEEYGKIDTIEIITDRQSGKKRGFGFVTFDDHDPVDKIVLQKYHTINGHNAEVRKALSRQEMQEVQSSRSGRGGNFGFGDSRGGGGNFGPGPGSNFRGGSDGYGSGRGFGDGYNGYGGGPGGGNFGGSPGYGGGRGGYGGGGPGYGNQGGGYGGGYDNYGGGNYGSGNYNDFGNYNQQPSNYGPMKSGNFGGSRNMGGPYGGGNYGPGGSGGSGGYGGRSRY

What was measured:
[1] = biological target: rGST APE1 WT (human) (UniProt P27695); experiment: UV crosslinking SDS-PAGE; settings: residues 1-318
[2] = biological target: rGST hnRNPA2B1 (UniProt P22626); experiment: UV crosslinking SDS-PAGE

AAUGGAUUUUUGGAGCAGG [hsa-miR-1246]: binds [1]; binds [2].

The exact form of at least one protein or probe is not confirmed. At least one verdict rests on a figure or table, not on a statement of the authors.
